Assay results from PubChem BioAssay (Tox21).
“And” between values parts separate entries of the source, which are not always exact repeats. Equal values may be shown once. This list holds what a sample rich in hits left over. Records with an inconclusive call do not appear. The source made the active and inactive calls. Unless noted, calls follow the shape of the dose curve; as a rule, active = well fitted curve in the direction sought with a large enough effect in the repeat runs; inconclusive = weak or mixed curves; inactive = no such curve, though single readings can be large; an effect the other way counts as inactive or inconclusive.

Amino acid sequences for entries named in this document (tags omitted). A change or cut given only in a name is not applied to a line headed by its entry.
UniProt P34981: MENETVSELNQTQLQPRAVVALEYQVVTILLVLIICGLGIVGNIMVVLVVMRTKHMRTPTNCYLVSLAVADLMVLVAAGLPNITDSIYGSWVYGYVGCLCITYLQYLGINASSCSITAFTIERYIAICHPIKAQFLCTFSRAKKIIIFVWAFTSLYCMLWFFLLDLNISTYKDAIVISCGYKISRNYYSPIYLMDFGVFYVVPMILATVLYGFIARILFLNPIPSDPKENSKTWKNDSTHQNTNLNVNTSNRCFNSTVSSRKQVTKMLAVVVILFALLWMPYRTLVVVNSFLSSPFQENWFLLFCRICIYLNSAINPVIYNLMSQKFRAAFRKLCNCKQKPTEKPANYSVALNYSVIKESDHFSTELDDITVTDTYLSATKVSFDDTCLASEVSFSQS
UniProt P03372, whole entry, looked up: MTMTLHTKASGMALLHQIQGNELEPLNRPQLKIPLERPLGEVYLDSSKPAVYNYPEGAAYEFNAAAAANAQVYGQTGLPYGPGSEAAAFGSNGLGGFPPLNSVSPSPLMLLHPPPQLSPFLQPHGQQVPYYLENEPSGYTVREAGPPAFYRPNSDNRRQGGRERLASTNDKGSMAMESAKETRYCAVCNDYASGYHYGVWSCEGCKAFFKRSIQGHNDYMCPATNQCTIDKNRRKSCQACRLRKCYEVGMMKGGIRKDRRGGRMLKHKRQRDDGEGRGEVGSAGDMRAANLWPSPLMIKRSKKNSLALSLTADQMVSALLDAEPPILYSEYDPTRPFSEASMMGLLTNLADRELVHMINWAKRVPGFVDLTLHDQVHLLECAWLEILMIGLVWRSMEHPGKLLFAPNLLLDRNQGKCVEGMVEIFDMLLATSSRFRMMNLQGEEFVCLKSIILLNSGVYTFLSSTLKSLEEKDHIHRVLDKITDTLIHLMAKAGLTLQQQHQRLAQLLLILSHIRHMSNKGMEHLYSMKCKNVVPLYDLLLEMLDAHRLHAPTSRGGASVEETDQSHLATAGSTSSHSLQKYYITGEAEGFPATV

Legend:
[1] = qHTS assay to identify small molecule agonists of the estrogen receptor beta (ER-beta) signaling pathway - cell viability counter screen (AID 1259380); settings: ER-beta-bla HEK293T viability, CellTiter-Glo luminescence, 16 h; at 92.4 µM (top of the series); also: nearly all actives have a fitted effect of over 30% in size
Method in brief: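 Viability of ER-beta-UAS-bla HEK293T cells was determined by CellTiter-Glo luminescence following 16 hr treatment with test compounds at 37C.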

[2] = qHTS assay to identify small molecule antagonists of the estrogen receptor beta (ER-beta) signaling pathway - cell viability counter screen (AID 1259382); settings: ER-beta-UAS-bla HEK293T viability, CellTiter-Glo luminescence, 16 h; at 92.4 µM (top of the series);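 also: HEK293T cells carrying ER-beta-UAS-bla reporter stimulated with estradiol; nearly all actives have a fitted effect of over 55% in size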
Method in brief: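 Tox21 10K library tested in qHTS format on ER-beta-bla HEK293T cells stimulated with 1nM E2; 16 hr treatment at 37C. Same-well CellTiter-Glo luminescence served as the cell viability measure.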

[3] = qHTS assay to identify small molecule agonists of the progesterone receptor (PR) signaling pathway - cell viability counter screen (AID 1346799; calls by dose curve; also: nearly all actives have a fitted effect of over 45% in size); settings: PR-UAS-bla HEK293T viability, CellTiter-Glo luminescence, 16 h; at 92.4 µM (top of the series)
Method in brief: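 Viability was scored by ATP luminescence (CellTiter-Glo, 30 min, room temperature) in the same wells used for the reporter readout, after 16 hr compound exposure of PR-UAS-bla HEK293T cells.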

[4] = qHTS assay to identify small molecule agonists of the TGF-beta/Smad signaling pathway - cell viability counter screen (AID 1346829); settings: SBE-bla HEK293T viability, CellTiter-Glo luminescence, 5 h; at 76.8 µM (top of the series); also: top concentration of the series differs between compounds; nearly all actives have a fitted effect of over 45% in size
Method in brief: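 Tox21 qHTS format: SBE-bla HEK 293T cells treated with DMSO-dissolved compounds for 5 hr; CellTiter-Glo luminescence after 30 min at room temperature.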

[5] = target: Thyrotropin-releasing hormone receptor (Homo sapiens) (UniProt P34981); test: qHTS assay to identify small molecule antagonists of the thyrotropin-releasing hormone receptor (TRHR) signaling pathway (AID 1346877; active = well fitted inhibition curve with a large enough effect in the repeat runs, not every such curve was filed as active); settings: TRHR-HEK293, TRH-induced calcium fluorescence, antagonist mode; at 51.3 µM (top of the series)
Method in brief: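 In this cell-based calcium flux format, HEK293 cells expressing TRHR received test compound for 5 min before the agonist TRH (1 nM final). Dye loading lasted 2 h at 37 °C.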

[6] = target: Thyrotropin-releasing hormone receptor (Homo sapiens) (UniProt P34981); test: qHTS assay to identify small molecule agonists of the thyrotropin-releasing hormone receptor (TRHR) signaling pathway (AID 1346891; calls by dose curve); settings: TRHR-HEK293 calcium fluorescence, agonist mode; at 57.6 µM (top of the series)
Method in brief: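 Kinetic fluorescence (3 min, 1 s intervals) reported intracellular calcium after compound transfer onto TRHR-Hek293 cells pre-loaded with dye for 2 h at 37 °C.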

[7] = qHTS assay to identify small molecule antagonists of the sonic hedgehog signaling (Shh) pathway - cell viability counter screen (AID 1259367); settings: NIH/3T3 Gli1-Luc viability, CellTiter-Fluor, 24 h; at 92.4 µM (top of the series); also: nearly all actives have a fitted effect of over 55% in size
Method in brief: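 After a 4 hr settling period, 3T3 Gli1-Luc cells were treated with DMSO-dissolved chemicals and conditioned medium, kept 24 hr at 37C in 5% CO2, and assayed for viability by CellTiter-Fluor fluorescence following 1 hr reagent incubation.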

[8] = qHTS assay to identify small molecule agonists of the androgen receptor (AR) signaling pathway in the presence of an antagonist - cell viability counter screen (AID 1259379); settings: MDA-kb2 viability, CellTiter-Fluor, 16 h; at 92.4 µM (top of the series);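 also: MDA-kb2 human breast cancer cells carrying an MMTV luciferase reporter; nearly all actives have a fitted effect of over 25% in size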
Method in brief: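 In MDA-kb2 cells (human breast carcinoma, MMTV-luciferase), compounds at 15 concentrations plus 3.0uM nilutamide; 16 hr, 37C, 0% CO2; CellTiter-Fluor fluorescence read for viability.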

[9] = target: Estrogen receptor (Homo sapiens) (UniProt P03372); test: qHTS assay to identify small molecule agonists of the estrogen receptor alpha (ER-alpha) signaling pathway in the presence of an antagonist (AID 1259383; calls by dose curve; also: top concentration of the series differs between compounds; nearly all actives have a fitted effect of over 15% in size); settings: VM7Luc4E2 cells, ERE-luciferase, +ICI-182,780, 22 h; at 92.4 µM (top of the series)
Method in brief: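 In VM7Luc4E2 cells, 4,000 per well, compounds at 15 concentrations were co-incubated 22hr at 37C with 10.0nM final ICI-182,780. Luminescence from the stably transfected 4×ERE-luciferase reporter was recorded 30min after ONE-Glo addition.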

[10] = qHTS assay to identify small molecule agonists of the estrogen receptor alpha (ER-alpha) signaling pathway in the presence of an antagonist - cell viability counter screen (AID 1259386); settings: VM7Luc4E2 viability, CellTiter-Fluor fluorescence, 22 h; at 92.4 µM (top of the series);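 also: cells exposed to compounds for 22 h at 37 °C before the viability read; nearly all actives have a fitted effect of over 30% in size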
Method in brief: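 Fluorescent CellTiter-Fluor viability signal from VM7Luc4E2 cells, with the reagent added during the final hour of a 22hr compound exposure at 37C in the presence of 10.0nM ICI-182,780.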
% is scaled to controls: 0 for no effect and ±100 for the full control effect.

CS(=O)(=O)c1ccc([C@@H](CC2CCCC2)C(=O)Nc2cnccn2)cc1Cl
inactive: activity change, negative = cytotoxicity [1] -6.66% | activity change, negative = cytotoxicity [2] -4.2% | activity change, negative = cytotoxicity [3] 23.5% | activity change, negative = cytotoxicity [4] 24.7% | activity, negative = inhibition [5] -19.6% | activation [6] 7.15%

O=C1Cc2ccccc2C1
inactive: viability change, negative = cytotoxic [7] -21% | activity change, negative = cytotoxicity [8] -2.36% | activity change, negative = cytotoxicity [1] -2.76% | activity change, negative = cytotoxicity [2] 1.65% | activation [9] 0.366% | activity change, negative = cytotoxicity [3] -9.87% | activity change, negative = cytotoxicity [4] 14%

Nc1ccc(N)c([N+](=O)[O-])c1
inactive: activity change, negative = cytotoxicity [3] -1.2% | activity, negative = inhibition [5] 0.329% | activation [6] -0.598%

COc1ccc2ccccc2c1
inactive: viability change, negative = cytotoxic [7] 0.77% | activity change, negative = cytotoxicity [8] 2.23% | activity change, negative = cytotoxicity [1] 0.83% | activity change, negative = cytotoxicity [2] 5.13% | activity change, negative = cytotoxicity [10] 1.52% | activity change, negative = cytotoxicity [3] 1.4% | activity change, negative = cytotoxicity [4] 13.5% | activity, negative = inhibition [5] 3.85% | activation [6] 0.83%

CCCCCCCC1CCC(=O)O1 (stereo not drawn)
inactive: viability change, negative = cytotoxic [7] 1.76% | activity change, negative = cytotoxicity [8] 4.75% | activity change, negative = cytotoxicity [1] 0.636% | activity change, negative = cytotoxicity [2] -1.07% | activity change, negative = cytotoxicity [10] 7.21% | activity change, negative = cytotoxicity [3] 66.6% | activity change, negative = cytotoxicity [4] 0.0199% | activity, negative = inhibition [5] 3.06% | activation [6] 0.471%

CC(=O)N(C)C
inactive: viability change, negative = cytotoxic [7] 2.82% and -1.12% | activity change, negative = cytotoxicity [8] 1.12% and -1.21% | activity change, negative = cytotoxicity [1] 3.56% and 0.357% | activity change, negative = cytotoxicity [2] 0.726% and 1.48% | activity change, negative = cytotoxicity [10] 1.12% and -1.06% | activity change, negative = cytotoxicity [3] -0.717% | activity change, negative = cytotoxicity [4] -1.17% and -3.5% | activity, negative = inhibition [5] -1.24% and 6.05% | activation [6] -0.418% and 0.0226%
